Results on 38 molecules are retold here after the supplement of paper PMC4635364.

Structures can show the parent of a compound that is named as a salt. The list shows a part of the results. Repeats in this data set agree poorly, so a single value says little.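 ReNCell VM, a human fetal ventral-midbrain neural progenitor line, was differentiated without mitogens. Blinded raters scored images stained for doublecortin (early neurons) or tyrosine hydroxylase (dopaminergic neurons) against untreated wells (0 = no change). Scores were averaged across repeats and both raters, and compounds averaging 2 or more were selected as hits for retesting.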

The subject of one test is ReNCell VM. The test can be described thus: neuronal differentiation score (DCX+ cell fraction vs untreated, manual image score) (score (-3 to 3)); higher = more neuronal differentiation. The settings on record: library: LOPAC; 2 uM; 2 weeks.
Consider `CN1[C@@H]2CC[C@H]1C[C@@H](OC(=O)C(O)c1ccccc1)C2` (mixture of isomers) [DL-Homatropine hydrobromide], for which the neuronal differentiation score is inactive: 0.

`O=Nc1ccc2oc(=O)ccc2c1` [6-Nitroso-1,2-benzopyrone]: the neuronal differentiation score was active: 2.

Consider `CNc1ncnc2c1ncn2[C@@H]1O[C@H](CO)[C@@H](O)[C@H]1O` [N6-Methyladenosine], for which the neuronal differentiation score was inactive: 1.

`Cc1cn([C@H]2C[C@H](N=[N+]=[N-])[C@@H](CO)O2)c(=O)[nH]c1=O` [3'-Azido-3'-deoxythymidine]: the neuronal differentiation score was inactive: 0.

As for `CN1C2CCC1CC(NC(=O)c1nn(C)c3ccccc13)C2` (stereo not drawn) [LY-278,584 maleate], the neuronal differentiation score was inactive: 0.

The test is the same for the next values; noted with them: library: Phytochemical; 2 uM; 2 weeks.
`CN1C(=O)CC[C@H]1c1cccnc1` [Cotinine (-)]: the neuronal differentiation score is inactive: 0.

Consider `O=C(O)c1cccc(C(=O)O)n1` [2,6-Pyridinedicarboxylic Acid], for which the neuronal differentiation score is inactive: 0.

In the case of `COC(=O)[C@H]1[C@H]2C[C@H]3c4[nH]c5ccccc5c4CCN3C[C@@H]2CC[C@@H]1O` [Corynanthine hydrochloride], the neuronal differentiation score is inactive: 0.

Take `COc1ccc2cc3n(c(=O)c2c1OC)CCc1cc2c(cc1-3)OCO2` [Berlambine]: the neuronal differentiation score is inactive: 0.

With `COc1cc2ccc(=O)oc2cc1O` [Scopoletin], the neuronal differentiation score was inactive: 0.

Staying with this test, now noted: library: Prestwick; 2 uM; 2 weeks.
Turning to `CCOC(=O)n1ccn(C)c1=S` [Carbimazole], the neuronal differentiation score is inactive: 0.

As to `CN1CCN(C(c2ccccc2)c2ccccc2)CC1` [Cyclizine hydrochloride], the neuronal differentiation score is inactive: 0.

On to `CN1CCN(C(c2ccccc2)c2ccc(Cl)cc2)CC1` (stereo not drawn) [Chlorcyclizine hydrochloride], for which the neuronal differentiation score is inactive: 0.

As to `Cc1onc(-c2ccccc2Cl)c1C(=O)N[C@@H]1C(=O)N2[C@@H]1SC(C)(C)[C@@H]2C(=O)O` [Cloxacillin sodium salt], the neuronal differentiation score is inactive: 0.

As for `Nc1ccc(S(=O)(=O)Nc2ccccn2)cc1` [Sulfapyridine], the neuronal differentiation score was inactive: 0.

In the case of `CNNCc1ccc(C(=O)NC(C)C)cc1` [Procarbazine hydrochloride], the neuronal differentiation score was inactive: 0.

On to `CC[C@H]1OC(=O)[C@H](C)[C@@H](O[C@H]2C[C@@](C)(OC)[C@@H](O)[C@H](C)O2)[C@H](C)[C@@H](O[C@@H]2O[C@H](C)C[C@H](N(C)C)[C@H]2O)[C@](C)(O)C[C@@H](C)/C(=N\OCOCCOC)[C@H](C)[C@@H](O)[C@]1(C)O` [Roxithromycin], for which the neuronal differentiation score was inactive: 0.

With `CC1Cc2ccccc2N1NC(=O)c1ccc(Cl)c(S(N)(=O)=O)c1` (stereo not drawn) [Indapamide], the neuronal differentiation score is inactive: 0.

The test is the same for the next values; noted with them: library: Spectrum; 2 uM; 2 weeks.
In the case of `Oc1cccc(O)c1`, the neuronal differentiation score is inactive: -1.

In the case of `CCCCOC(=O)c1ccc(N)cc1`, the neuronal differentiation score was inactive: 1.

For `O=C(OOC(=O)c1ccccc1)c1ccccc1`, the neuronal differentiation score was inactive: 0.

Consider `CC(=O)OCC(=O)[C@@]1(O)[C@H](OC(C)=O)C[C@H]2[C@@H]3CCC4=CC(=O)C=C[C@]4(C)[C@@]3(F)[C@@H](O)C[C@@]21C`, for which the neuronal differentiation score was inactive: 0.

As for `COc1ccc(C(=O)/C=C/c2ccccc2)cc1`, the neuronal differentiation score is inactive: 0.

For `COc1c(-c2coc3cc4c(cc3c2=O)CC(O)C(C)(C)O4)ccc2c1C=CC(C)(C)O2` (stereo not drawn), the neuronal differentiation score is inactive: -1.

In the case of `C#CCN(C)Cc1ccccc1`, the neuronal differentiation score was inactive: 0.

Regarding `CNC[C@H](O)c1cccc(O)c1`, the neuronal differentiation score was inactive: 0.

On to `CCC1(C)CC(=O)NC1=O` (stereo not drawn), for which the neuronal differentiation score is inactive: 0.

`COc1cc(C/C=C/c2ccccc2)c(OC)cc1O`: the neuronal differentiation score is inactive: 0.

In the case of `O=C1c2cccc(O)c2C(=O)c2c(O)cccc21`, the neuronal differentiation score is inactive: 0.

On to `Cc1ccnc(NS(=O)(=O)c2ccc(N)cc2)n1`, for which the neuronal differentiation score was active: 2.

Turning to `CC/C(=C(\c1ccccc1)c1ccc(OCCN(C)C)cc1)c1ccccc1`, the neuronal differentiation score was inactive: 0.

The test is the same for the next values; noted with them: library: Tocriscreen; 2 uM; 2 weeks.
On to `Cc1[nH]c(/C=C2\C(=O)Nc3ccc(S(=O)(=O)Cc4c(Cl)cccc4Cl)cc32)c(C)c1C(=O)N1CCC[C@@H]1CN1CCCC1`, for which the neuronal differentiation score is inactive: 0.

Take `Clc1cccc(Nc2nnc(-c3ccccc3)c3ccccc23)c1`: the neuronal differentiation score is inactive: 0.

Regarding `CCO/C(O)=C1\C(C)=NC(c2ccccc2)=C(C(=O)OCc2ccc([N+](=O)[O-])cc2)C1C#Cc1ccccc1` (stereo not drawn), the neuronal differentiation score is inactive: 0.

On to `Oc1cc2c(c(Cl)c1O)CCNCC2c1ccccc1` (stereo not drawn), for which the neuronal differentiation score was inactive: 0.

Turning to `Cc1ccc(CC2(O)CCN(CCOc3ccc(O)cc3)CC2)cc1`, the neuronal differentiation score is inactive: 0.

Turning to `O=C(Nc1ccc(C(F)(F)F)cn1)N1CCN(c2ncccc2C(F)(F)F)CC1`, the neuronal differentiation score was inactive: 0.

In the case of `C=CC(=O)c1ccc2ccccc2c1`, the neuronal differentiation score is inactive: 1.

For another test, the system named is ReNCell VM. Briefly: dopaminergic neuron differentiation score (TH+ cell fraction vs untreated, manual image score) (score (0 to 3)); higher = more TH+ dopaminergic neuron differentiation. The settings on record: library: LOPAC; 2 uM; 4 weeks; BDNF 10 ng/ml + GDNF 10 ng/ml.
For `CN1[C@@H]2CC[C@H]1C[C@@H](OC(=O)C(O)c1ccccc1)C2` (mixture of isomers) [DL-Homatropine hydrobromide], the “dopaminergic neuron differentiation score” value was inactive: 0.

Consider `O=Nc1ccc2oc(=O)ccc2c1` [6-Nitroso-1,2-benzopyrone], for which the “dopaminergic neuron differentiation score” value is inactive: 0.

Take `CNc1ncnc2c1ncn2[C@@H]1O[C@H](CO)[C@@H](O)[C@H]1O` [N6-Methyladenosine]: the “dopaminergic neuron differentiation score” value is inactive: 0.

With `Cc1cn([C@H]2C[C@H](N=[N+]=[N-])[C@@H](CO)O2)c(=O)[nH]c1=O` [3'-Azido-3'-deoxythymidine], the “dopaminergic neuron differentiation score” value is inactive: 0.

`CN1C2CCC1CC(NC(=O)c1nn(C)c3ccccc13)C2` (stereo not drawn) [LY-278,584 maleate]: the “dopaminergic neuron differentiation score” value is inactive: 0.
